Primary screen of a compound library

Source: ChEMBL document CHEMBL3988442, “University of Dundee, Small-Polar-MMV Screening Library” (2021).

The filed quantity is “Percent Effect” (%). The record does not define 0% and 100%; most values in the screen are far below 50% and negative numbers occur (in some assays of this library far below -100). The compounds are a random part of those screened. Two or more numbers in one place are separate tests of the same structure; such repeats can differ widely.

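Whole-cell growth test on Mycobacterium tuberculosis, read after 3 days in glucose-containing 7H9 medium; the read-out is not stated. Concentration: 50 µM. Higher reads as more growth inhibition (inferred: compounds with an IC50 in retests scored well above the rest). Of about 69,000 compounds tested this way, about 760 (1.1%) reached 50% or more in at least one test.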

Compound	percent effect
CC(C)c1ocnc1C(=O)N1CC(=O)Nc2cccnc21	0.4741 & -8.9
Cc1[nH]ccc1C(=O)N1CCOCC12CCCC2	12.27
COc1ncccc1C(=O)Nc1cccc(C[S+](C)[O-])c1C (configuration not stated)	11.41 & -1.425
NC(=O)Cn1ccnc1C1CCCN(Cc2cccc(Cl)c2F)C1 (configuration not stated)	-0.0218 & -4.347
CSCCN1CCC(NC(=O)c2cccc(C3CCCNC3)c2)CC1 (configuration not stated)	-13.18
CCOCC(=O)NCCc1nc(C2CC2)cc(C(F)(F)F)n1	2.02
[H][C@@]12CCN(C[C@@H]1CC)[C@@H](CNC(=O)c1ccco1)C2	-3.307 & 2.529
CS(=O)(=O)NCc1cnc2n1CCN(Cc1ccco1)CC2.O=C(O)C(F)(F)F	-6.531
Cc1nc(CN2C(=O)CCC23CCN(Cc2ccco2)CC3)cs1	5.765
O=C(O)C(F)(F)F.O=C(O)C(F)(F)F.[H][C@@]12CCN(Cc3cccnc3)C(=O)[C@@]1([H])CN(Cc1ccc(C)s1)C2	-24.81
CCc1ccc(C(=O)NC(C)c2ccc(S(C)(=O)=O)c(F)c2)o1 (configuration not stated)	9.405 & 21.35
c1cnc(NCC2Cn3nnc(-c4ccoc4)c3CO2)nc1 (configuration not stated)	-26.14
Cc1cc2c(=O)n3c(nc2s1)CCN(C(=O)c1scnc1C)CC3	21.29
O=C(O)C(F)(F)F.O=C(O)C(F)(F)F.[H][C@@]12CN(Cc3csc(C)n3)C[C@H](C(=O)NCCOC)[C@]1([H])CCO2	-8.969
CC(=O)NC1CCN(C(=O)Nc2cccc(C(F)(F)F)c2)CC1	-61.02
Cc1cc(N[C@H](CO)c2ccccc2)n2nc(C)cc2n1	2.15 & -30.49
O=C(Cn1cccc2oc(=O)nc1-2)NCC1Cc2ccccc2O1 (configuration not stated)	-7.784
O=C(O)C(F)(F)F.O=C(O)C(F)(F)F.[H][C@@]12CN(Cc3cccc(F)c3)C[C@]1([H])OCCN2Cc1c(C)noc1C	25.43
O=C(NCCCO)NCCc1cc(F)ccc1F	24.39
CC(C(N)=O)n1nc(-c2cccs2)cc(N)c1=O (configuration not stated)	7.542
[H][C@@]12CN(C(=O)N(C)C)C[C@]1([H])C(=O)NC21CCN(C(=O)C(C)C)CC1	3.143
Cc1cnn(CCC(=O)Nc2cccnc2N2CCC(CO)CC2)c1	-10.54 & 4.624
O=C(O)c1csc(S(=O)(=O)Nc2cccc(OC(F)F)c2)c1	-10.87
COc1ccc(OC)c(C2CCN(c3ccc4cc[nH]c4n3)C2)c1 (configuration not stated)	9.431
O=C(O)c1ccc(N2CCC(Cc3ccccc3)CC2)nn1	5.761 & -14.69
Cc1cc(-c2cncnc2)nc(C2CCCN2S(C)(=O)=O)n1 (configuration not stated)	-0.7703
c1ccc(Cc2noc(CN3CCOC(Cn4cncn4)C3)n2)cc1 (configuration not stated)	-54.68 & -7.43
N#Cc1cccnc1N1CCCC(CO)(Cc2ccccc2F)C1 (configuration not stated)	2.23
O=C(O)C(F)(F)F.O=C(O)C(F)(F)F.[H][C@@]12OCCN(C3CCCC3)[C@@]1([H])CC[C@H]2Oc1cccnc1	14.84
[H][C@]12CC[C@]([H])(CN(c3nccc(NC)n3)C1)N(CCOC)C2=O	-10.38
COc1cccc(OCC2CCCN(C(=O)c3cnn(C)c3)C2)c1 (configuration not stated)	14.78
CCn1cc(CN2CCCN(C(=O)CCc3cnn(C)c3)CC2)cn1	14.2
CCOc1ccc(CN(C)C(=O)c2nc(N3CCCC3)ncc2Cl)cc1	10.44 & 12.6
Cc1ccccc1NC(=O)CCNC(=O)c1ccoc1	-1.612
Cc1cc(C2CCCN2Cc2ccn(C)c(=O)c2)on1 (configuration not stated)	15.19
CCCOc1ccccc1NCC(=O)Nc1ccc(CC)cc1	-18.9 & 5.383
O=C1NCCN1C1CCN(Cc2nc(-c3ccccc3)no2)CC1	-0.1328
CN(Cc1csc(-c2cccs2)n1)Cc1cccnc1N	36.33 & 18.2
O=C(O)C(F)(F)F.O=C1COC2(CCN(CC3CC3)CC2)CN1c1ccccc1	-1.34
CCOc1nnc(CN(C)C2CCCN(c3ccc(C)nn3)C2)s1 (configuration not stated)	18.39
[H][C@@]12C[C@@H](C(=O)NC)N(C(C)=O)[C@]1([H])CN(Cc1ccc(C)o1)C2	-15.85
COCCN1CCC2(CC1)CC(Nc1ccc(C)nn1)CO2.O=C(O)C(F)(F)F (configuration not stated)	2.252 & 2.137
Cc1nnc(Nc2cccc(C3CCCN(Cc4ncc[nH]4)C3)n2)s1 (configuration not stated)	-20.95
NC(=O)CN1CCC(NC(=O)N2CCCC2c2ccsc2)CC1 (configuration not stated)	-2.35 & -0.1518
CC(C)OCCCNC(=O)CSc1nnc(OC(C)C)s1	8.027
NC(=O)Nc1cccc(Oc2ccccn2)c1	-8.351 & 2.312
O=C(c1ccc(Br)o1)N1CCCCC1Cn1cccn1 (configuration not stated)	18.15
COCCN(CCOC)S(=O)(=O)N(C)Cc1ccncc1	-26.14
COC(=O)CNC(=O)CCc1cc(Br)cs1	25.57
COCC(O)CN1CCC(=O)N(CC=C(C)C)Cc2ccccc21 (configuration not stated)	31.89
Cc1cc(C2CCCN2Cc2nc(-c3ccco3)no2)on1 (configuration not stated)	3.742 & 7.522
O=C(O)C(F)(F)F.O=C1CC2(CCN(Cc3ccccn3)C2)CN1c1cncnc1 (configuration not stated)	11.5
CSCCCN1CCCC1c1noc(C)n1 (configuration not stated)	36.34
N#CC1=C(N)Nn2c(nnc2-c2ccccc2F)S1	-17.6
CC(C)(C)n1cc(CNc2ccc(CNS(C)(=O)=O)cc2)cn1	4.071
Cc1ccc(CNC(=O)c2ccc(CNS(C)(=O)=O)o2)cc1F	-1.88
CCn1nc(C)c2nc(C(C)C)nc(N3CCC(O)CC3)c21	24.87
Cn1nc(C2CC2)cc1C(=O)N1CCC(c2nnsc2S(C)(=O)=O)CC1	19.42
CC(C)=CCCC(C)CN1CCC(n2cc(CO)nn2)CC1 (configuration not stated)	7.318
Cl.O=C(NCCn1nc(C2CCNC2)c2cccnc21)c1ccccc1 (configuration not stated)	-7.626
CC(C)c1nnsc1CN1CCc2[nH]nc(-c3ccc(F)c(F)c3)c2C1	-11.03
CC(=O)N(Cc1noc(C)n1)C1CCN(Cc2cc(C)on2)C1 (configuration not stated)	-2.103
O=C(Cn1cccn1)NCC(c1cccs1)N1CCCC1 (configuration not stated)	16.19
CCc1nc(CN2CCCN(C(=O)c3cncnc3C)CC2)cs1	-7.077
Cc1cccc(-c2noc([C@@H]3C[C@@H](O)CN3Cc3ccc(CO)o3)n2)c1	-1.32 & 2.754
CCOc1cccc(CNC(=O)CN2CCC3(CCOC3)C2)c1 (configuration not stated)	0.07317
[H][C@]12CN(Cc3ccccn3)CCN1C[C@@H](c1ccccc1)[C@@H]2C(=O)NC	2.603
O=C(O)c1nnn(-c2cccc(C(F)(F)F)c2)c1-c1ccncc1	-55.68
CS(=O)(=O)N[C@H]1CN(CCOCc2ccccc2)C[C@@H]1C1CC1	14.04
CC(=O)N1CCCC2(CN(Cc3ccc(C)s3)CCO2)C1.O=C(O)C(F)(F)F (configuration not stated)	-3.798 & -6.224
c1ccc(Cc2noc(CN3CCCCC3Cn3cccn3)n2)cc1 (configuration not stated)	9.009
COc1ccc(CCNc2cc(-c3nc(C)no3)ccn2)cc1OC	7.652 & 15.9
Cc1noc(COCC(=O)Nc2cc(C)c(Br)cn2)n1	51.33
CNC(=O)C1(C)CCCN1Cc1cnn(C)c1C (configuration not stated)	4.153

The first 4 entries again:

Compound,percent effect
CC(C)c1ocnc1C(=O)N1CC(=O)Nc2cccnc21,0.4741 & -8.9
Cc1[nH]ccc1C(=O)N1CCOCC12CCCC2,12.27
COc1ncccc1C(=O)Nc1cccc(C[S+](C)[O-])c1C (configuration not stated),11.41 & -1.425
NC(=O)Cn1ccnc1C1CCCN(Cc2cccc(Cl)c2F)C1 (configuration not stated),-0.0218 & -4.347